No dose or concentration is given here for some results.
Test system: cancer lesion
Assay: 64CuCl2 PET/CT in the selection step: lesion uptake and target to background ratio (TBR)
Type: in vivo, human
Settings: PET/CT of selection step; phase I trials, 16 glioblastoma and 16 prostate cancer patients

With [Cl][Cu][Cl] [^64CuCl2, Copper Chloride] the “TBR in non-responder patients” value was > 25.

Source: patent publication US20250108135A1, “TERAGNOSTIC METHOD FOR CANCER PATIENTS” (priority 2022, published 2025)
